Reference: PMC7343964
Like-named read-outs stand apart in the source and are kept apart here. No constants are given. Whether binding was seen depends on the method and setting. In cells and extracts the contact can be indirect. These calls come from enrichment with a bait or labelling near it, and not all partners need be listed. Where a sequence is shown, tags or fusion partners need not be part of it.

By UniProt entry, the sequences of proteins in these tests, tags left out.
UniProt Q9FRL8: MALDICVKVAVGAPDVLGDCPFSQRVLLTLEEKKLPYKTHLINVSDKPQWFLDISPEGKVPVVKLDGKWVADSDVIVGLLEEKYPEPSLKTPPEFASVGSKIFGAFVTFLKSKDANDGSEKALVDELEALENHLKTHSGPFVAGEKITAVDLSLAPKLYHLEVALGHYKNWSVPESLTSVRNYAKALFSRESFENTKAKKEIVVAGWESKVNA

Experiments:
[1] = biological target: T1, YAP1C probe (Yap1 C-terminal cysteine-rich domain construct fused to a tandem affinity purification tag) (Saccharomyces cerevisiae) (UniProt P19880); test: affinity purification with mass spectrometry; extract of YAP1C cells (untreated or 20 mM H2O2 for 30 min; 10 mM iodoacetamide in the lysis buffer) on IgG-Sepharose beads, 2 h at 4°C; on-bead Trypsin/Lys-C digestion under non-reducing conditions; LC-MS/MS of linear and cross-linked peptides (pLink 2, FDR ≤ 1%)
T1 sequence: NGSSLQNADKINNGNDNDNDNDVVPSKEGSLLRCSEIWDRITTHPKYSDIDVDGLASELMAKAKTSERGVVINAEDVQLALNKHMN

[2] = biological target: T1, YAP1C probe (Yap1 C-terminal cysteine-rich domain construct fused to a tandem affinity purification tag) (Saccharomyces cerevisiae); test: as above; remark: listed apart in the source

In the case of “DEHYDROASCORBATE REDUCTASE 2 (from UniProt Q9FRL8 1-213) (enzyme)”, the binding [1] is reported as “binds”.

B1: PROTEIN PHOSPHATASE5 (enzyme, UniProt Q84XU2 1-538)
chain: METKNENSDVSRAEEFKSQANEAFKGHKYSSAIDLYTKAIELNSNNAVYWANRAFAHTKLEEYGSAIQDASKAIEVDSRYSKGYYRRGAAYLAMGKFKDALKDFQQVKRLSPNDPDATRKLKECEKAVMKLKFEEAISVPVSERRSVAESIDFHTIGNKPRSSSMPTKTALAAVVAAVMVVAVRGFATTEILMVLVSVVLGTFWWGSFSGKVEPQYSGARIEGEEVTLDFVKTMMEDFKNQKTLHKRYAYQIVLQTRQILLALPSLVDISVPHGKHITVCGDVHGQFYDLLNIFELNGLPSEENPYLFNGDFVDRGSFSVEIILTLFAFKCMCPSSIYLARGNHESKSMNKIYGFEGEVRSKLSEKFVDLFAEVFCYLPLAHVINGKVFVVHGGLFSVDGVKLSDIRAIDRFCEPPEEGLMCELLWSDPQPLPGRGPSKRGVGLSFGGDVTKRFLQDNNLDLLVRSHEVKDEGYEVEHDGKLITVFSAPNYCDQMGNKGAFIRFEAPDMKPNIVTFSAVPHPDVKPMAYANNFLRMFN
For B1, the binding [2] was “binds”.
